Measured values reported in publication PMC10362501.
These are yes or no findings as the source states them, for the method shown. Binding seen in cells or lysates may run through a third protein. A yes stands for co-enrichment or nearness to the bait. Other partners may have been found. Tags and fused reporters may be left off the sequences shown.

Chains of the proteins cited; added tags and fusions are not shown.
UniProt P08238: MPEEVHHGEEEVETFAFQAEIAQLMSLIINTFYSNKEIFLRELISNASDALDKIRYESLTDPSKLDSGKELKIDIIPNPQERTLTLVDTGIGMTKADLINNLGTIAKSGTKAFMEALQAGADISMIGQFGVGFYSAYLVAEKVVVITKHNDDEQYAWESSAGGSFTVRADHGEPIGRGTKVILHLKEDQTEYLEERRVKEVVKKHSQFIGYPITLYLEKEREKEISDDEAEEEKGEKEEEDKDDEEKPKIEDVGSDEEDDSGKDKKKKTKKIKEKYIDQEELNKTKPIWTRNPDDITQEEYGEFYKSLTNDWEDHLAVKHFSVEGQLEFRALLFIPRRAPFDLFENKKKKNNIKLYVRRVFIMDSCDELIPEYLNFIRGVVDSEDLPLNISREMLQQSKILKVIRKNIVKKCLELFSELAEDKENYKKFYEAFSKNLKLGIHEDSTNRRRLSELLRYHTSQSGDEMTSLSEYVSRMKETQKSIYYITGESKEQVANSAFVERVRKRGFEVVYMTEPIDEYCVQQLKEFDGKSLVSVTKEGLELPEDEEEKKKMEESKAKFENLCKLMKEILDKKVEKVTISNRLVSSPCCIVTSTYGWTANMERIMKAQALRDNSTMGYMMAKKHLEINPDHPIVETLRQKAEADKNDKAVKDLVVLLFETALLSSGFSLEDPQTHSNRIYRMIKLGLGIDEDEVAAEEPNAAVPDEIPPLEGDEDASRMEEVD
UniProt Q96AC1: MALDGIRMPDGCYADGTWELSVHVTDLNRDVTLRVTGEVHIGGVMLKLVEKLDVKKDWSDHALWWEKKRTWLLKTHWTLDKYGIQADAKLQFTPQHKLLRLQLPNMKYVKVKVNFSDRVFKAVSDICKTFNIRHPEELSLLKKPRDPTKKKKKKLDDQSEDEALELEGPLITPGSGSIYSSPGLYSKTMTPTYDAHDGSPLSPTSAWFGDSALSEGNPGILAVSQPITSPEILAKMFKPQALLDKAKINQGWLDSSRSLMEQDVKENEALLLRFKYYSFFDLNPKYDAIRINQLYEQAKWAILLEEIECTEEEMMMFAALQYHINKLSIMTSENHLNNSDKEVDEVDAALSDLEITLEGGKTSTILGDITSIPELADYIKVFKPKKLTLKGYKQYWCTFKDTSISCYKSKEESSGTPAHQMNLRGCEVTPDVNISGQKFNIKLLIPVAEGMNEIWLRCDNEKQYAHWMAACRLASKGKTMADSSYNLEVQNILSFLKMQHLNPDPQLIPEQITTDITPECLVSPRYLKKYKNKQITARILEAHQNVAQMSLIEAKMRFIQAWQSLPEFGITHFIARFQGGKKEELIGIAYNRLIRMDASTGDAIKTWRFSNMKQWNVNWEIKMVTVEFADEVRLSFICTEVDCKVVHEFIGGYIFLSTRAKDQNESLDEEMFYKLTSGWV
UniProt P13533: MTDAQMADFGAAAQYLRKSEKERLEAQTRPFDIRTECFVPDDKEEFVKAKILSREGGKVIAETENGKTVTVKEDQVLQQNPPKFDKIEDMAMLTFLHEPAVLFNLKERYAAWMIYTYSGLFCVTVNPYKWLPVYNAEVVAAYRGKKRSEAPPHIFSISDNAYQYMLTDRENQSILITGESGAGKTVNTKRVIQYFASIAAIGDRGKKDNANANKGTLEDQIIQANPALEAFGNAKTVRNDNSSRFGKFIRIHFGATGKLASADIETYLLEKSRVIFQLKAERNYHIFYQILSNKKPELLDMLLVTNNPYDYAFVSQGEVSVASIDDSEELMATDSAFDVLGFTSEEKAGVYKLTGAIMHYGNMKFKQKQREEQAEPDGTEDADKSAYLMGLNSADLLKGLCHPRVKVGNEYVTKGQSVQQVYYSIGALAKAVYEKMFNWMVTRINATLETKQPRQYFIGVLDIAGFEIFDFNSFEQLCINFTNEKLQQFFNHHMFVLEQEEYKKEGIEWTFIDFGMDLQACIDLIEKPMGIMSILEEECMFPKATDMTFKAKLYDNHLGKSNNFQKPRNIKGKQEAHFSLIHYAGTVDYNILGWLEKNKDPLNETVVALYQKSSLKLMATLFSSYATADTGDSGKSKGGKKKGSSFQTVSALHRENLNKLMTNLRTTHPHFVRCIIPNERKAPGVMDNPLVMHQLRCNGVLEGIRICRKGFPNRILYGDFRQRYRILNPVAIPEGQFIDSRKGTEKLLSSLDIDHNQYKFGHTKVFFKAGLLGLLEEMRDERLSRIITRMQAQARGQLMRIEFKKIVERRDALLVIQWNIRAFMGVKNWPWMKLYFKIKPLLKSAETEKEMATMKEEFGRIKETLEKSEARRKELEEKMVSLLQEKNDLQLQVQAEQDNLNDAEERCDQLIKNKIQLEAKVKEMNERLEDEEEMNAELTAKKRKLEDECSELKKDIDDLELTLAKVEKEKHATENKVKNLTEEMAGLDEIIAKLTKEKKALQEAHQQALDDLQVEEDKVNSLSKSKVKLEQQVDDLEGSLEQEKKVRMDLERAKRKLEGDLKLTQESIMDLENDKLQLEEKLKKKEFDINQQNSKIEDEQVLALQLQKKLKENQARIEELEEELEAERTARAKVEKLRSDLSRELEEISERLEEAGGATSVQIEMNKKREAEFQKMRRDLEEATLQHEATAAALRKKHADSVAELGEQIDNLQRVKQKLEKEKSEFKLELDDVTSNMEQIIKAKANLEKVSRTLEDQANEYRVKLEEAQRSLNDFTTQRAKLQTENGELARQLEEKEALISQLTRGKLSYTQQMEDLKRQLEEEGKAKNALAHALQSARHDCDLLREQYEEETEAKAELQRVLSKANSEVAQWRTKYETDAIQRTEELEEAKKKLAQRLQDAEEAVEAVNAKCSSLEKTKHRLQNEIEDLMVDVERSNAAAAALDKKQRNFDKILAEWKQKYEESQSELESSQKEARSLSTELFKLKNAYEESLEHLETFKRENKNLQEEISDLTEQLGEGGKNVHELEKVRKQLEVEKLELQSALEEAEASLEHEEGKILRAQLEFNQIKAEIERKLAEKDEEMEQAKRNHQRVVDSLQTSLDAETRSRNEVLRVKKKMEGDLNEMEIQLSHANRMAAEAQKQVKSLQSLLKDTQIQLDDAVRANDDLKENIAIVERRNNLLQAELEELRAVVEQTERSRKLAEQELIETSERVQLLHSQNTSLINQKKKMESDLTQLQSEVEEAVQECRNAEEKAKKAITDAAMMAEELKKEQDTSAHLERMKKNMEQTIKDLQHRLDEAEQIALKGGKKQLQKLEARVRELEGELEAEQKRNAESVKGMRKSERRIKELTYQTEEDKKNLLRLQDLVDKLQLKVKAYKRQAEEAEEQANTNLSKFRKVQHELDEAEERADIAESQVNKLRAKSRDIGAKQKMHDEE

target: T1, UNC45B-FLAG (human) (UniProt Q8IWX7); experiment: affinity purification with mass spectrometry; co-IP of UNC45B-FLAG from lysates of UNC45B-FLAG-CMs (WT-CMs as control), shotgun proteomic identification by MS; lysis buffer 50 mM Tris-HCl pH 7.5, 1 mM EDTA, 150 mM NaCl, 1% Triton X-100, 10% glycerol, 1 mM PMSF
T1 sequence: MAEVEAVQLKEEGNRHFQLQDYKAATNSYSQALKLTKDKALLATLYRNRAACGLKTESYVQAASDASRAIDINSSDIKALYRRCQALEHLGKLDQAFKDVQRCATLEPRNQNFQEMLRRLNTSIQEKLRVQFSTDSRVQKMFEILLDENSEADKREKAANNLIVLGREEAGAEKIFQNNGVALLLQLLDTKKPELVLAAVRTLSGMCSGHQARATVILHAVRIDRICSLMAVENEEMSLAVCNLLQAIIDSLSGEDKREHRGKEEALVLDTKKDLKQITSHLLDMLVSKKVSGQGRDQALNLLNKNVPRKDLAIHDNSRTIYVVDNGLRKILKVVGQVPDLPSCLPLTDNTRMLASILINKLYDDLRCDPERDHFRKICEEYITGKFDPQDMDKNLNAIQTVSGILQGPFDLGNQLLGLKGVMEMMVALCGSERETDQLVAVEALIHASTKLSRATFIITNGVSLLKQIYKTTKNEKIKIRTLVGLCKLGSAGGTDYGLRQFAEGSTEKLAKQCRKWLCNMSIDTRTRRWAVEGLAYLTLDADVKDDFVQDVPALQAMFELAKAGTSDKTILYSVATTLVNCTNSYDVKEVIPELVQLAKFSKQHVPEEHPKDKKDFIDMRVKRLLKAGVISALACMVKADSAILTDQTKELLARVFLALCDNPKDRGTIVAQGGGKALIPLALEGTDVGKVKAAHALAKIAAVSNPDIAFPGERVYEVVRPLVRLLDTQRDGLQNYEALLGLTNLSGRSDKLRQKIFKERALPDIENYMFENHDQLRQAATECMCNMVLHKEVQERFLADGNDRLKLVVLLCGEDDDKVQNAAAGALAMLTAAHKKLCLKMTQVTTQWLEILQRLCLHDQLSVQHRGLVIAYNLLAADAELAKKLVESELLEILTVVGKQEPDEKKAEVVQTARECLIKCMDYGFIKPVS

binding, binds:
HSP70
HSP90AA1 (from UniProt P07900 1-732)
HSP90AB1 (from UniProt P08238 1-724)
KINDLIN2 (from UniProt Q96AC1 1-680)
muscle myosin MYH6 (from UniProt P13533 1-1939)
